Results as given in PubChem BioAssay AID1487 (National Center for Advancing Translational Sciences (NCATS), 2009).
The other results are listed elsewhere or left out. Further columns of the screen follow, without active or inactive calls. Compounds called inactive in the main read-out are mostly missing here. Potencies come from curve fits of mixed quality, noted in brackets.

Experiment: qHTS Assay for Modulators of Lamin A Splicing
Settings: HeLa LMNA splicing GFP/RFP minigene ratio, 48 h
How it was run: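 S3 HeLa cells stably expressing lamin A-EGFP splicing minigene plus DsRed2, 600 cells/well, 48 h compound exposure at 37C. Laser-scanning cytometry; analysed as GFP (500-530 nm)/RFP (575-640 nm) total intensity ratio; 0.5% DMSO vehicle.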

[1] = measured here: GFP splicing reporter channel
[2] = measured here: RFP viability control channel

Structure (SMILES)	AC50 [1]	AC50 [2]
Cc1c(Cl)cccc1NC(=S)NCCc1ccc(C(F)(F)F)cc1	12.6 µM [falling, single point]	25.1 µM [falling, single point]
COc1ccc(N(CC(=O)NCc2ccc(C)cc2)S(=O)(=O)c2c(C)nn(C)c2C)cc1	31.6 µM [rising, single point]	–
O=C(NCCOc1ccccc1F)c1ccccc1SCc1ccc(F)cc1	11.2 µM [rising, single point]	14.1 µM [rising, single point]
Cc1nonc1C(=O)N/N=C/c1ccc(O)cc1O	0.316 µM [rising, full curve, poor fit]	–
Cc1ccc(NC(=O)C2CCN(c3nc4ccccc4[nH]3)CC2)cc1Cl	–	11.2 µM [falling, partial curve, poor fit]
CN(C(=O)c1cccc(Nc2ccc(-c3ccc4c(c3)OCCO4)nn2)c1)C1CCCCC1	–	12.6 µM [rising, partial curve, poor fit]
O=C(CSc1nc2c([nH]c3ccccc32)c(=O)n1-c1ccc(F)cc1)N1CCCCCC1	15.8 µM [falling, partial curve, poor fit]	22.4 µM [falling, single point]
Cc1ccc(NC(=O)COc2ccc(CCO)cc2-n2nc3ccccc3n2)cc1C	8.91 µM [rising, partial curve]	11.2 µM [rising, partial curve]
CN1C(=O)C2CCCCN2c2ccc(C(=O)NCc3ccccc3Br)cc21 (stereo not drawn)	7.08 µM [falling, partial curve]	35.5 µM [rising, single point]
CC(C)(C)C1CCc2c(sc3c2C(=O)NC(c2ccco2)N3)C1 (stereo not drawn)	35.5 µM [rising, single point]	35.5 µM [rising, single point]
Cc1cc(C(=O)CC#N)c(C)n1-c1ccc(OC(F)F)cc1	8.91 µM [rising, partial curve]	11.2 µM [rising, partial curve]
Cc1oc(-c2ccccc2Cl)nc1CN1CCCC1c1ccc(F)cc1 (stereo not drawn)	1.58 µM [falling, full curve, poor fit]	0.0316 µM [falling, full curve]
NCC(O)C1CCCCCCC1 (stereo not drawn)	–	5.01 µM [rising, full curve]
O=C1CCCN1CN(C(=O)c1ccc2c(c1)OCO2)c1cccc(Cl)c1	8.91 µM [rising, partial curve, poor fit]	11.2 µM [rising, single point]
CC1Cc2ccccc2N1C(=O)CN1CCC(n2nnc3cc(C(F)(F)F)ccc32)CC1 (stereo not drawn)	–	31.6 µM [rising, single point]
Cc1ccc(C(=O)c2cc([N+](=O)[O-])ccc2N2CCOCC2)cc1	–	3.98 µM [rising, full curve]
Fc1ccc(C(c2nnnn2C2CCCC2)N(Cc2ccco2)CC2CCCO2)cc1 (stereo not drawn)	–	35.5 µM [rising, single point]
O=C(O)/C=C\C(=O)Nc1ccccc1C#Cc1ccccc1	25.1 µM [falling, single point]	35.5 µM [falling, single point]
Cc1nn(-c2ccccc2)c(C)c1NC(=O)COc1ccc(Cl)cc1Cl	2.51 µM [rising, full curve]	6.31 µM [rising, full curve]
Cc1cccc2sc(N(Cc3cccnc3)C(=O)C3CCCCC3)nc12	3.16 µM [falling, partial curve, poor fit]	–
Brc1ccc(C2Nc3cccc4cccc(c34)N2)s1	–	1.12 µM [rising, full curve, poor fit]
O=C(/C=C/c1ccccc1)NCCC1=CCCCC1	–	14.1 µM [rising, partial curve]
CC(=O)Nc1cccc(NC(=O)COc2nncc3ccccc23)c1	–	35.5 µM [rising, single point]
COc1cccc(CNC(=O)Nc2cccs2)c1	–	17.8 µM [rising, single point]
CC1CC(C)CN(C(=O)CSc2nnc(-c3ccc(Cl)s3)o2)C1 (stereo not drawn)	–	3.55 µM [rising, partial curve, poor fit]
CCn1c(SCc2ccccc2Cl)nc2nc3c(cc2c1=O)CCCC3	3.16 µM [falling, single point]	1.12 µM [rising, partial curve, poor fit]
